Measured values taken from article PMC3837162.
These are yes or no findings as the source states them, for the method shown. Binding seen in cells or lysates may run through a third protein. Some entries that bind do so weakly or less than the wild type. For part of these data: Where a sequence is shown, tags or fusion partners need not be part of it.

Chains of the proteins cited; added tags and fusions are not shown.
UniProt P84095: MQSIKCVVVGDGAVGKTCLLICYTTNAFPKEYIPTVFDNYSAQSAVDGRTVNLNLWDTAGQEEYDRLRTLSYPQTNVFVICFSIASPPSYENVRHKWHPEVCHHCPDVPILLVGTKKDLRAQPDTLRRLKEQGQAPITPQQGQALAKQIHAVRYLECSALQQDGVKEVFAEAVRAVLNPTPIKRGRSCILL
UniProt P84096: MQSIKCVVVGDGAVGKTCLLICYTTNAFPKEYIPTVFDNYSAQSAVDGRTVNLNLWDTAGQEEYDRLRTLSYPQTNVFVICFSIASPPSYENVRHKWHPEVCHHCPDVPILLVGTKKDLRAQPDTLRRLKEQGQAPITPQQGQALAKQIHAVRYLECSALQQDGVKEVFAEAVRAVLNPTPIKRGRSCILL
UniProt P63027: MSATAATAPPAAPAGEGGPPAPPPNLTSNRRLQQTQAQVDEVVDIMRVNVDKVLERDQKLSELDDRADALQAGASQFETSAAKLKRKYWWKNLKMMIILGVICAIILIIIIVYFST

Columns and labels:
[1] = target: T1, GST-ELMO fusion protein (ELMO2, amino acids 1-362) (UniProt Q96JJ3); assay: pull-down; GST-ELMO (ELMO2 1-362) on GSH-Sepharose rotated for 1 h at 4 °C with lysates of washed human or mouse platelets stimulated with CRP or thrombin (some human samples pre-treated with pharmacologic inhibitors); lysis buffer with Tris-Cl, NaCl, MgCl2, Triton X-100; RhoG identified by immunoblotting; only the target purified
T1 sequence: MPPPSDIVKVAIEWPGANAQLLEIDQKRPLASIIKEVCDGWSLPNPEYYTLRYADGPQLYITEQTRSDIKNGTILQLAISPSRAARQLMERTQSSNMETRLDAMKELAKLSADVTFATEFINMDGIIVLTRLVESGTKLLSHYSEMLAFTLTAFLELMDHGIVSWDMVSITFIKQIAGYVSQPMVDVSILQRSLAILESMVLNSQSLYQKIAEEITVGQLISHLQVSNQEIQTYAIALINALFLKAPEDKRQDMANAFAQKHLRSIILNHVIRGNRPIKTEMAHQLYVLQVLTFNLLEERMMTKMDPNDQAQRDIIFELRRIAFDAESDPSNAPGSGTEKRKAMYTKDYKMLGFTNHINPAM

GST-RhoG fusion protein [2] = target: GST-RhoG fusion protein (UniProt P84095); assay: pull-down; GTPγS-loaded (100 uM) GST-RhoG-Sepharose beads rotated with human platelet whole cell lysates for 1 h at 4 °C; bound proteins detected by immunoblotting; GSH-Sepharose beads as control; only the target purified
GST-RhoG fusion protein [3] = target: GST-RhoG fusion protein (UniProt P84095); assay: pull-down; GDP-loaded (1 mM) GST-RhoG-Sepharose beads rotated with human platelet whole cell lysates for 1 h at 4 °C; bound proteins detected by immunoblotting; GSH-Sepharose beads as control; only the target purified

Row | Substance | binding [1] | binding (GST-RhoG fusion protein [2]) | binding (GST-RhoG fusion protein [3])
1 | RhoG (mouse platelets, activated form) (from UniProt P84096 1-191) | binds |  | 
2 | Vesicle-associated membrane protein 2 (from UniProt P63027 1-116) |  | binds | binds
3 | RhoG (human platelets, activated, GTP-bound form) (from UniProt P84095 1-191) | binds |  | 
4 | DOCK1 (DOCK180) (from UniProt Q14185 1-1865) |  | binds | no binding (condition: GDP-loaded RhoG)
